# Experimental data taken from patent publication US8541460B2, “PDK-1/Akt signaling inhibitors” (The Ohio State University, priority 2003, dated 2013).
# Tests used:
# HOP-92 = assay: NCI DTP cell line screen (SRB), Non-Small Cell Lung Cancer; type: cell-based
# U251 = assay: NCI DTP cell line screen (SRB), CNS Cancer; type: cell-based, human
# Description: (§1) Screening of compounds 70 and 71 against several cancer cell lines The human tumor cell lines of the cancer screening panel are grown in RPMI 1640 medium containing 5% fetal bovine serum and 2 mM L-glutamine. For a typical screening experiment, cells are inoculated into 96 well microtiter plates in 100 μL at plating densities ranging from 5,000 to 40,000 cells/well depending on the doubling time of individual cell lines. After cell inoculation, the microtiter plates are incubated at 37° C., 5% CO2, 95% air and 100% relative humidity for 24 h prior to addition of experimental drugs.
# (§2) After 24 h, two plates of each cell line are fixed in situ with TCA, to represent a measurement of the cell population for each cell line at the time of drug addition (Tz). Experimental drugs are solubilized in dimethyl sulfoxide at 400-fold the desired final maximum test concentration and stored frozen prior to use. At the time of drug addition, an aliquot of frozen concentrate is thawed and diluted to twice the desired final maximum test concentration with complete medium containing 50 μg/ml gentamicin. Additional four, 10-fold or ½ log serial dilutions are made to provide a total of five drug concentrations plus control. Aliquots of 100 μl of these different drug dilutions are added to the appropriate microtiter wells already containing 100 μl of medium, resulting in the required final drug concentrations.
# (§3) Following drug addition, the plates are incubated for an additional 48 h at 37° C., 5% CO2, 95% air, and 100% relative humidity. For adherent cells, the assay is terminated by the addition of cold TCA. Cells are fixed in situ by the gentle addition of 50 μl of cold 50% (w/v) TCA (final concentration, 10% TCA) and incubated for 60 minutes at 4° C. The supernatant is discarded, and the plates are washed five times with tap water and air dried. Sulforhodamine B (SRB) solution (100 μl) at 0.4% (w/v) in 1% acetic acid is added to each well, and plates are incubated for 10 minutes at room temperature. After staining, unbound dye is removed by washing five times with 1% acetic acid and the plates are air dried. Bound stain is subsequently solubilized with 10 mM trizma base, and the absorbance is read on an automated plate reader at a wavelength of 515 nm. For suspension cells, the methodology is the same except that the assay is terminated by fixing settled cells at the bottom of the wells by gently adding 50 μl of 80% TCA (final concentration, 16% TCA). Using the seven absorbance measurements [time zero, (Tz), control growth, (C), and test growth in the presence of drug at the five concentration levels (Ti)], the percentage growth is calculated at each of the drug concentrations levels. Percentage growth inhibition is calculated as: [(Ti−Tz)/(C−Tz)]×100 for concentrations for which Ti>/=Tz [(Ti−Tz)/Tz]×100 for concentrations for which Ti<Tz
# (§4) Three dose response parameters are calculated for each experimental agent. […] The drug concentration resulting in total growth inhibition (TGI) is calculated from Ti=Tz. […] Values are calculated for each of these three parameters if the level of activity is reached; however, if the effect is not reached or is exceeded, the value for that parameter is expressed as greater or less than the maximum or minimum concentration tested.
# The methods described were used to test compounds 70 and 71 on a panel of sixty cell lines under a screening service provided by the Developmental Therapeutics Program at the National Institutes of Health. […]
# CCRF-CEM = assay: NCI DTP cell line screen (SRB), Leukemia; type: cell-based
# M14 = assay: NCI DTP cell line screen (SRB), Melanoma; type: cell-based
# Description: as §1, §2, §3, §4
# (§5) The methods described were used to test compounds 70 and 71 on a panel of sixty cell lines under a screening service provided by the Developmental Therapeutics Program at the National Institutes of Health. Shown in FIG. 1C are 1, RPMI-8226 leukemia cells; 2; NCI-H322M non-small cell lung cancer cells; 3, HT29 colon cancer cells; 4, U251 CNS cancer cells; 5, SK-MEL-28 melanoma cancer cells; 6, SK-OV-3 ovarian cancer cells; 7, RXF 393 renal cancer cells; 8, PC-3 prostate cancer cells; 9, MDA-MB-231 breast cancer cells.
# SK-MEL-28 = assay: NCI DTP cell line screen (SRB), Melanoma; type: cell-based
# Description: as §1, §2, §3, §4, §5
# LOX IMVI = assay: NCI DTP cell line screen (SRB), Melanoma; type: cell-based
# Description: as §1, §2, §3, §4, §5
smiles,measurement,setting,value
"NCC(=O)Nc1ccc(-n2nc(C(F)(F)F)cc2-c2ccc3c(ccc4ccccc43)c2)cc1 [Compound 70, 2-Amino-N-{4-[5-(2-phenanthrenyl)-3-(trifluoromethyl)-1H-pyrazol-1-yl]-phenyl}-acetamide]",Mean Optical Densities,HOP-92; Log10 Concentration −4.0,0.267
same,Mean Optical Densities,HOP-92; Log10 Concentration −5.0,0.095
same,Mean Optical Densities,HOP-92; Log10 Concentration −6.0,1.465
same,Mean Optical Densities,HOP-92; Log10 Concentration −7.0,1.474
same,Mean Optical Densities,HOP-92; Log10 Concentration −8.0,1.509
same,Mean Optical Densities,U251; Log10 Concentration −4.0,0.320
same,Mean Optical Densities,U251; Log10 Concentration −5.0,0.144
same,Mean Optical Densities,U251; Log10 Concentration −6.0,0.810
same,Mean Optical Densities,U251; Log10 Concentration −7.0,1.139
same,Mean Optical Densities,U251; Log10 Concentration −8.0,1.298
same,Mean Optical Densities,CCRF-CEM; Log10 Concentration −4.0,0.194
same,Mean Optical Densities,CCRF-CEM; Log10 Concentration −5.0,0.168
same,Mean Optical Densities,CCRF-CEM; Log10 Concentration −6.0,0.523
same,Mean Optical Densities,CCRF-CEM; Log10 Concentration −7.0,0.946
same,Mean Optical Densities,M14; Log10 Concentration −4.0,0.256
same,Mean Optical Densities,M14; Log10 Concentration −5.0,0.211
same,Mean Optical Densities,M14; Log10 Concentration −6.0,0.916
same,Mean Optical Densities,M14; Log10 Concentration −7.0,0.974
same,Mean Optical Densities,M14; Log10 Concentration −8.0,0.975
same,Mean Optical Densities,SK-MEL-28; Log10 Concentration −4.0,0.218
same,Mean Optical Densities,SK-MEL-28; Log10 Concentration −5.0,0.071
same,Mean Optical Densities,SK-MEL-28; Log10 Concentration −6.0,1.130
same,Mean Optical Densities,SK-MEL-28; Log10 Concentration −7.0,1.320
same,Mean Optical Densities,SK-MEL-28; Log10 Concentration −8.0,1.426
same,Mean Optical Densities,LOX IMVI; Log10 Concentration −4.0,0.352
same,Mean Optical Densities,LOX IMVI; Log10 Concentration −5.0,0.176
same,Mean Optical Densities,LOX IMVI; Log10 Concentration −6.0,0.742
same,Mean Optical Densities,LOX IMVI; Log10 Concentration −7.0,0.974
same,Mean Optical Densities,LOX IMVI; Log10 Concentration −8.0,1.204
